Measured values published in paper PMC5386880.

Sequences of proteins named here, by UniProt entry; tags and fusion partners are left off. A change or cut given only in a name is not applied to a line headed by its entry.
UniProt P51140: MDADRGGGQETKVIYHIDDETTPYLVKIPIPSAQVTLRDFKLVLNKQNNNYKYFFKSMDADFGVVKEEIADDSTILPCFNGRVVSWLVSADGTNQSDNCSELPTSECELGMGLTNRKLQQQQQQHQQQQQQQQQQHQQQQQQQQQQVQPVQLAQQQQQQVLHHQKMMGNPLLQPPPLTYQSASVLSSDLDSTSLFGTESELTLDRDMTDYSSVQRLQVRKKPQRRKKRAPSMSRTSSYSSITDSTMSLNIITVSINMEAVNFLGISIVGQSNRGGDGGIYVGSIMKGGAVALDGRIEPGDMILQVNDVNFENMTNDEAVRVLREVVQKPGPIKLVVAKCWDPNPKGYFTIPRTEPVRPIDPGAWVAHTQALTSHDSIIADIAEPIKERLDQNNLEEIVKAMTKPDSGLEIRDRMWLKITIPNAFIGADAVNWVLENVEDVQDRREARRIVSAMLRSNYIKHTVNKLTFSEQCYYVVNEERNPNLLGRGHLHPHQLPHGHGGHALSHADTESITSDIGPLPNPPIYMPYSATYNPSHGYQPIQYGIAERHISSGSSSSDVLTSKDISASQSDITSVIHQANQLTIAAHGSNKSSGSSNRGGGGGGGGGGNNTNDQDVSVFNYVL
UniProt Q9VQ36: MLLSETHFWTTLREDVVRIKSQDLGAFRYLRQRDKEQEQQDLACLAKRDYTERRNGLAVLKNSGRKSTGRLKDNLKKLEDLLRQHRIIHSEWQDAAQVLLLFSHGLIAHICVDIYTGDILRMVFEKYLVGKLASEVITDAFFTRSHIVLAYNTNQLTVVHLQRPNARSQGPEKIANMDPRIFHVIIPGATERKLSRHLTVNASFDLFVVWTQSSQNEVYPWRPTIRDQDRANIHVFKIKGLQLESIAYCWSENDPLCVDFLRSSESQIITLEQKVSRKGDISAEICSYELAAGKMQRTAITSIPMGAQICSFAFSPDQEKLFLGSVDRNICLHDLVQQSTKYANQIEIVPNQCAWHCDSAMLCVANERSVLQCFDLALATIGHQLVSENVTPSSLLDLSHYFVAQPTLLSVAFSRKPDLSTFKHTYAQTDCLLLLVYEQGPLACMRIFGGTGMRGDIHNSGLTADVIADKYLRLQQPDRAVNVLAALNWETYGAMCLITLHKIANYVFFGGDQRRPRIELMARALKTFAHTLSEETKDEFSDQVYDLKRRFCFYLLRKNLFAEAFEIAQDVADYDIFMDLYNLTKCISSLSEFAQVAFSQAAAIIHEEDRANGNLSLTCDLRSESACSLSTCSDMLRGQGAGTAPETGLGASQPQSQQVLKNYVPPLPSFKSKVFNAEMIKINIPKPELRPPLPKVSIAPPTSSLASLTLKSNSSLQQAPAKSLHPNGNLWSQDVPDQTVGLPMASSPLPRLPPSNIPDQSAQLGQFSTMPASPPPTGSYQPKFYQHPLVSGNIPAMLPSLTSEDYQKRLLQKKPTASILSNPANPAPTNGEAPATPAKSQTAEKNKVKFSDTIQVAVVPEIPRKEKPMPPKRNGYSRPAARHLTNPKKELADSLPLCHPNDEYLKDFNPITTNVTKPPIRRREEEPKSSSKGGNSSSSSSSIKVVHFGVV

Target: Dishevelled (Dsh), full length, yeast two-hybrid fusion (Drosophila) (UniProt P51140)
Test: two-hybrid; yeast strain AH109, Matchmaker Two-Hybrid System 3 (pGADT7 and pGBKT7 cotransformed); growth on SD/-Ade/-His/-Leu/-Trp with X-alpha-Gal taken as positive

In the case of “Frtz with aa 1-300 deleted (from UniProt Q9VQ36)”, the binding is reported as “no binding”.

Results are given in words; binding and its absence hold for the method and conditions named.
